Patent US20160228570A1 (QUEEN MARY AND WESTFIELD COLLEGE, published 2016)
Results are given in words; binding and its absence hold for the method and conditions named. Some results given as binding are weak or reduced against the parent protein; the word gives no strength.

Protein sequences, listed by entry. Tags and fused reporters are not part of them. Residues count along the entry.
UniProt P02459, residues 201-1214: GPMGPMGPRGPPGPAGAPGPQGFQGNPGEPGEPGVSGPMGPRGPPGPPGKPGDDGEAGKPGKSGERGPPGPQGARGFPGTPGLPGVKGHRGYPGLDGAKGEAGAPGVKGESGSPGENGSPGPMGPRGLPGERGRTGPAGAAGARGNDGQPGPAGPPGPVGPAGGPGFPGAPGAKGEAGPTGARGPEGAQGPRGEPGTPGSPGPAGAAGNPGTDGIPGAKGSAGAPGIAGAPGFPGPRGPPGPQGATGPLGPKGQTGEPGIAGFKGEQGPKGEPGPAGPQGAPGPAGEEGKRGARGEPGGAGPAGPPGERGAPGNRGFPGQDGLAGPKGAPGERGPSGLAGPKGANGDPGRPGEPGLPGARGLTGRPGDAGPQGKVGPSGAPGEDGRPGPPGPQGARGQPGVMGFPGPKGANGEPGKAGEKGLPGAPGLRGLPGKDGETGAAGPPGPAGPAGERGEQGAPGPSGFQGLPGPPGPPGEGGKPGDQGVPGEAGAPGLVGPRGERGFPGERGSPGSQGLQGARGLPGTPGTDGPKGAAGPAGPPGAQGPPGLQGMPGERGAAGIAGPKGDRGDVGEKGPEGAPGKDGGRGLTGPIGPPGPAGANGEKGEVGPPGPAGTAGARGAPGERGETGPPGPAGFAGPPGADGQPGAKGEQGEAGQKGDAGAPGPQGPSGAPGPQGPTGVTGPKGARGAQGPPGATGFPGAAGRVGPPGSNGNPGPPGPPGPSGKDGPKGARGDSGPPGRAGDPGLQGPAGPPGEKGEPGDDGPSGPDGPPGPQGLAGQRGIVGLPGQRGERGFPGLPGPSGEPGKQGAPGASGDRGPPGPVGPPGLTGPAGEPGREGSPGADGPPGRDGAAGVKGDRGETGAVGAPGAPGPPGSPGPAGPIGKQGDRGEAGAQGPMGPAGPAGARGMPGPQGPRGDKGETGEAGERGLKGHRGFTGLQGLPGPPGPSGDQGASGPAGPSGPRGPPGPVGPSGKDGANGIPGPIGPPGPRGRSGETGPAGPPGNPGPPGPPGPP

Key:
ribose-modified CII [1] = target: T1, ribose-modified CII (bovine, UniProt P02459 201-1214, glycated with 2M ribose, overnight at 37 C; residues not stated); experiment: phage ELISA screen; Antigen column of Table 3
T1 construct: also called Ribose-CII; glycated CII

HOCl modified CII [2] = target: T2, HOCl modified CII (bovine, UniProt P02459 201-1214, modified with HOCl; residues not stated); experiment: phage ELISA screen; Antigen column of Table 3
T2 construct: also called HOCl-CII; HOCl-Collagen II

ribose-modified CII [3] = target: T1, ribose-modified CII; experiment: ELISA, purified scFv on coated antigen
Protocol: (§1) Screening for positive anti-modified CII phage clones was first performed by enzyme-linked immunosorbent assay (ELISA), as previously described (Harrison J. L, 1996). Microtiter plate (Nunc, Paisley, UK) wells were coated with 10 μg/ml native or modified CII and incubated with 100 μl phage suspension for 90 minutes. In addition, native and modified BSA were used as negative control. After removal of the supernatants, the amount of bound phage was determined using peroxidase-labeled anti-M13 antibodies (GE Healthcare: Ltd, Little Chalfont, Buckinghamshire) and developed by using 100 mM 3,3′5,5′ tetramethylbenzidine (TMB) as substrate. The reaction was monitored in an ELISA reader at 450 nm with a reference wavelength of 650 nm using GENios plate reader (TECAN, Theale Court, Reading UK) and Magellan software (TECAN, Theale Court, Reading UK)
(§2) The reactive phage clones obtained from E. coli TG-1 bacteria were used to infect E. coli HB2151 non-suppressor bacterial strain to obtain soluble scFv. […] Binding of purified scFv to modified CII was first analyzed by ELISA as above except that mouse anti-myc tag antibody (Santa Cruz Biotechnology, INC, Wembley, UK) followed by anti-mouse-HRP conjugate (Sigma, Dorset, UK) were used to probe bound scFv.

HOCl modified CII [4] = target: T2, HOCl modified CII; experiment: ELISA, purified scFv on coated antigen
Protocol: as §1, §2

[5] = target: native non-modified collagen type II (CII) (bovine) (UniProt P02459); experiment: Western blot, 10 ug/ml scFv as probe on denatured CII

Measured: binding

B1: scFv 1-11E (scFv, not shown: large carriers; small tags and cut ends)
scFv: EVQLLESGGGLVQPGGSLRLSCAASGFTFSSYAMSWVRQAPGKGLEWVSSIDDSGATTYYADSVKGRFTISRDNSKNTLYLQMNSLRAEDTAVYYCAKNYSSFDYWGQGTLVTVSSGGGGSGGGGSGGGGSTDIQMTQSPSSLSASVGDRVTITCRASQSISSYLNWYQQKPGKAPKLLIYYASSLQSGVPSRFSGSGSGTDFTLTISSLQPEDFATYYCQQAANYPTTFGQGTKVEIK
notes: its first MA and last DI may come from cloning into the fusion; also called clone 1-11E; 1-2F
binds: all assays above
